Measured values published in the supplement of paper PMC12067093, “Discovery and optimisation of a covalent ligand for TRIM25 and its application to targeted protein ubiquitination” (Chemical Science, 2025).
Some of the results follow.

By UniProt entry, the sequences of proteins in these tests, tags left out. Where a name states a change or a piece, a line headed by the entry shows the natural chain unless it says otherwise.
UniProt P11766: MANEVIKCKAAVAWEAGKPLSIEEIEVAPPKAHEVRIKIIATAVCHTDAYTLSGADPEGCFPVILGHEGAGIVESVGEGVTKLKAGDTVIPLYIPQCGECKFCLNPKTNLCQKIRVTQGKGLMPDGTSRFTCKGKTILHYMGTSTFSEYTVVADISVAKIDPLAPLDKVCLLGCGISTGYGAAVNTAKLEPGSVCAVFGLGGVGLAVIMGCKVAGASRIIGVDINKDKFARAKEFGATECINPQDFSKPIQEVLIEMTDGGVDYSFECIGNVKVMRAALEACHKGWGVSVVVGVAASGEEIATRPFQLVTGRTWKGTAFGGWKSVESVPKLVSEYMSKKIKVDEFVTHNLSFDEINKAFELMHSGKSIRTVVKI
UniProt P12814, whole entry, looked up: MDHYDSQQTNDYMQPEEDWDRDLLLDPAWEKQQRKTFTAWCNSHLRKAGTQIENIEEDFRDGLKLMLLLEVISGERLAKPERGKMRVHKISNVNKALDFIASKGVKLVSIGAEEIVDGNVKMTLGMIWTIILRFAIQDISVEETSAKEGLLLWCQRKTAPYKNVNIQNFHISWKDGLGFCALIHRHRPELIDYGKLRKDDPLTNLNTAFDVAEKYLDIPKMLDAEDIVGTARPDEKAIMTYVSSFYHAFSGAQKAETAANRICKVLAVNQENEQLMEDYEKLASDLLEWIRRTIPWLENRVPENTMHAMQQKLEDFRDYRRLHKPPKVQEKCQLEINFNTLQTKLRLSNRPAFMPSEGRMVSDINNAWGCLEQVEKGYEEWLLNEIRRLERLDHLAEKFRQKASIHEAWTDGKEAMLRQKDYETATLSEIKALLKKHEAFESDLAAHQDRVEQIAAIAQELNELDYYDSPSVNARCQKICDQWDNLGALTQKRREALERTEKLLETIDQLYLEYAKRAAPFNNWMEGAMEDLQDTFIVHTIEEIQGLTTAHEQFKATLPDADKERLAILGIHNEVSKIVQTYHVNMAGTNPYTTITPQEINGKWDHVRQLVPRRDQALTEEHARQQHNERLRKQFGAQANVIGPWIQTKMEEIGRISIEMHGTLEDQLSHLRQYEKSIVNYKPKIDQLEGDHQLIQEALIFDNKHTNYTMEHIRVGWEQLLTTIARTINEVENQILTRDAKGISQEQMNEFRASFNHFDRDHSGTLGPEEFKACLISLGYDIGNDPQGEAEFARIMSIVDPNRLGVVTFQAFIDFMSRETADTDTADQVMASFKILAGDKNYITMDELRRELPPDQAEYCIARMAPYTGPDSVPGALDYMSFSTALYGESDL
UniProt O60488: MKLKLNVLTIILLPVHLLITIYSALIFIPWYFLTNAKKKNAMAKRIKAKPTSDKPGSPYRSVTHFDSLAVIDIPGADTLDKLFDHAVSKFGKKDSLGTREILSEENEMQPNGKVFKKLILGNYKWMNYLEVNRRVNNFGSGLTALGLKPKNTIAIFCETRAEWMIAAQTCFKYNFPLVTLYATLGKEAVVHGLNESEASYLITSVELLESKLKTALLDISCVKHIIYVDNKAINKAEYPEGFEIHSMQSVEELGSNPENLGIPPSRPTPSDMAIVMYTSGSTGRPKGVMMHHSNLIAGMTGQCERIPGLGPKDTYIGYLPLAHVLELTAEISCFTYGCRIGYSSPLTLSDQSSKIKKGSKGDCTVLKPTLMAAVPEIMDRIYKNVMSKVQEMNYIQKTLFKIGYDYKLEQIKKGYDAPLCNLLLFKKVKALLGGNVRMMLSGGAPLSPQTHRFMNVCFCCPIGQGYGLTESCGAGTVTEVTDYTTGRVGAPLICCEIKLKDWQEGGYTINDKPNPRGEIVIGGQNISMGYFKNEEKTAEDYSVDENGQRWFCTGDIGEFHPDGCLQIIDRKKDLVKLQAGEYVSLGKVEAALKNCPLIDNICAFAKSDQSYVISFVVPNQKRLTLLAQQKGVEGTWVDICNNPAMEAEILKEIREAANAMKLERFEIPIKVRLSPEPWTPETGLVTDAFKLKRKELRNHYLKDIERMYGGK
UniProt O43707, whole entry, looked up: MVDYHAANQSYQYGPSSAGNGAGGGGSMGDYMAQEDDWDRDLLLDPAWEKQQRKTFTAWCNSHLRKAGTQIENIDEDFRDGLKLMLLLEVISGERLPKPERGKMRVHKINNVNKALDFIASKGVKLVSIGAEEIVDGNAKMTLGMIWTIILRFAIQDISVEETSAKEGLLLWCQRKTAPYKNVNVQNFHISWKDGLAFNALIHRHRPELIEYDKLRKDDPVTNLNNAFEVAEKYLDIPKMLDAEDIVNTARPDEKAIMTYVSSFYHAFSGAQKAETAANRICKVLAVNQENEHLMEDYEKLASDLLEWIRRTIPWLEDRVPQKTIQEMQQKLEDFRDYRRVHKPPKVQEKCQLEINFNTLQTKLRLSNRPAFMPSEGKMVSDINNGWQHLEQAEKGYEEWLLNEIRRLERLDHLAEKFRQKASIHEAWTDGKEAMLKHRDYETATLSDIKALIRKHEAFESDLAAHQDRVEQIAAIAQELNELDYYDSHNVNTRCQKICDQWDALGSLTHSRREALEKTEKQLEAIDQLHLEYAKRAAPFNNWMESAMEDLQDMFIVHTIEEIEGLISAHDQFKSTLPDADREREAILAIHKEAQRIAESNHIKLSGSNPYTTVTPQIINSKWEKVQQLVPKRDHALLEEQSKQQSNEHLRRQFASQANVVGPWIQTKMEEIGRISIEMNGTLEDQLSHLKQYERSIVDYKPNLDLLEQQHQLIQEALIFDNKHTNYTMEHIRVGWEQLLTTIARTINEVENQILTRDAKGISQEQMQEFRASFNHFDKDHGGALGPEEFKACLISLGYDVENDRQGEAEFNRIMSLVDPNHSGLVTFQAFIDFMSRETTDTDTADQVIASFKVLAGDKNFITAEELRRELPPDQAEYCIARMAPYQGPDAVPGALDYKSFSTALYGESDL
UniProt Q53H12: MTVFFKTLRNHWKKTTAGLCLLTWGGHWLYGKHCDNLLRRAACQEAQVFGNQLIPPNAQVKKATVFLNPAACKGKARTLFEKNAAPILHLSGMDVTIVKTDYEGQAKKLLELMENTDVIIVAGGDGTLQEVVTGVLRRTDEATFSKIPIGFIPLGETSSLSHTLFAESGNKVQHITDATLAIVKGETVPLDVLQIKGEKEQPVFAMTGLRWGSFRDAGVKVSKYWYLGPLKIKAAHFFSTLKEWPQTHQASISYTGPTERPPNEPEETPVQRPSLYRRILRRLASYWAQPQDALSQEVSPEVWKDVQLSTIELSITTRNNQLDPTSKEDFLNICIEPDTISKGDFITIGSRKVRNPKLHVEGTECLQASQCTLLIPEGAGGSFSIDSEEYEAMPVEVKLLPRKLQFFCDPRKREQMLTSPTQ
UniProt Q13443: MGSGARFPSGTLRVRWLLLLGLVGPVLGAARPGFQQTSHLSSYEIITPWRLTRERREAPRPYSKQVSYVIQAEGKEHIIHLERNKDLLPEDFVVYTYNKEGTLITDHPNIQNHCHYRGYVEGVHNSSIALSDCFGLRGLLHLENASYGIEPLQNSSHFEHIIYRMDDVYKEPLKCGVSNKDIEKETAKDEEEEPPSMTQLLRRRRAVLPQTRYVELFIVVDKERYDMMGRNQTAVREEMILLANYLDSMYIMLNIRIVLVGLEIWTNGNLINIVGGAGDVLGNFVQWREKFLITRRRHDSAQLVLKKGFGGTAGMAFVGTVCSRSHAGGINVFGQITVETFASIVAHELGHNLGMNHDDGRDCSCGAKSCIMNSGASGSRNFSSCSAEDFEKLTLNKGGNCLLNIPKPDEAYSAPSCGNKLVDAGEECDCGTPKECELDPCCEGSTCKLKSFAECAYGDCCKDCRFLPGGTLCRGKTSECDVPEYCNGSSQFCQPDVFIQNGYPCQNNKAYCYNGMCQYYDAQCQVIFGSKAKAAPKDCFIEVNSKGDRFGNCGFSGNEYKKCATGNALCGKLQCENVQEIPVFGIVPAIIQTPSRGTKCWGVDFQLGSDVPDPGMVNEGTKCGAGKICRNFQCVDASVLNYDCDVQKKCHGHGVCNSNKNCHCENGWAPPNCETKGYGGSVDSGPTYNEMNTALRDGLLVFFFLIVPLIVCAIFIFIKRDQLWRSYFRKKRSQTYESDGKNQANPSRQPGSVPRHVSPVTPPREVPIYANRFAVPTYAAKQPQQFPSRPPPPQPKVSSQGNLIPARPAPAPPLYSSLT
UniProt Q9ULC5: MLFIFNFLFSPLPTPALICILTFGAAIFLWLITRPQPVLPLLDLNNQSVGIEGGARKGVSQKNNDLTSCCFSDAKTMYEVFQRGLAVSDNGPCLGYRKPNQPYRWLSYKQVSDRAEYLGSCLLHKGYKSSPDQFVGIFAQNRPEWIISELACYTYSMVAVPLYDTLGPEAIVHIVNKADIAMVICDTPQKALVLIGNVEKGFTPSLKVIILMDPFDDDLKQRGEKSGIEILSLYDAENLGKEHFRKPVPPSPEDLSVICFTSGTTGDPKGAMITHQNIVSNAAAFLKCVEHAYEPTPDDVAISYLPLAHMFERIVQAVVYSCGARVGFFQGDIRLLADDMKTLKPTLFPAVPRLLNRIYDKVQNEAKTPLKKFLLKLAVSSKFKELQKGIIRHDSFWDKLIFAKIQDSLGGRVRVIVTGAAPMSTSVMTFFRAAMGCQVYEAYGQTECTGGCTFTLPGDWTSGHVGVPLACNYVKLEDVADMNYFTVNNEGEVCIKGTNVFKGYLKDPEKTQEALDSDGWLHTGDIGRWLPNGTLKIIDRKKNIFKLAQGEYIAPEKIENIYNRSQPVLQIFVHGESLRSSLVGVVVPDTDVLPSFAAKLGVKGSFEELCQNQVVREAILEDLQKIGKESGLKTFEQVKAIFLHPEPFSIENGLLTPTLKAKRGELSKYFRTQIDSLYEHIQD
UniProt Q9BUB4: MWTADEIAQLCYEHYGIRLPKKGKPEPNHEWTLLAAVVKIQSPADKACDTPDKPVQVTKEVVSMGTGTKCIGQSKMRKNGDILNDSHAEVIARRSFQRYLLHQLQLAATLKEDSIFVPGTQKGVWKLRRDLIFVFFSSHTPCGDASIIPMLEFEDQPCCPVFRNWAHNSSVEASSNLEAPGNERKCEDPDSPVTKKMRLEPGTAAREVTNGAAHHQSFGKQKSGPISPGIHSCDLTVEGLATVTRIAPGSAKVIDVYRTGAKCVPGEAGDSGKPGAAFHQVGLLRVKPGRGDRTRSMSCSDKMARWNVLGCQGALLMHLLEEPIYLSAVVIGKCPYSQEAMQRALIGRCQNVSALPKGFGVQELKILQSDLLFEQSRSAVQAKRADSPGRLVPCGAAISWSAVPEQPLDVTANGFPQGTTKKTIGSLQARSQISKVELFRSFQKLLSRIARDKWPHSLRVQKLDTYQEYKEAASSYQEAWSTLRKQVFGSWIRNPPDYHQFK
UniProt Q9H2P0: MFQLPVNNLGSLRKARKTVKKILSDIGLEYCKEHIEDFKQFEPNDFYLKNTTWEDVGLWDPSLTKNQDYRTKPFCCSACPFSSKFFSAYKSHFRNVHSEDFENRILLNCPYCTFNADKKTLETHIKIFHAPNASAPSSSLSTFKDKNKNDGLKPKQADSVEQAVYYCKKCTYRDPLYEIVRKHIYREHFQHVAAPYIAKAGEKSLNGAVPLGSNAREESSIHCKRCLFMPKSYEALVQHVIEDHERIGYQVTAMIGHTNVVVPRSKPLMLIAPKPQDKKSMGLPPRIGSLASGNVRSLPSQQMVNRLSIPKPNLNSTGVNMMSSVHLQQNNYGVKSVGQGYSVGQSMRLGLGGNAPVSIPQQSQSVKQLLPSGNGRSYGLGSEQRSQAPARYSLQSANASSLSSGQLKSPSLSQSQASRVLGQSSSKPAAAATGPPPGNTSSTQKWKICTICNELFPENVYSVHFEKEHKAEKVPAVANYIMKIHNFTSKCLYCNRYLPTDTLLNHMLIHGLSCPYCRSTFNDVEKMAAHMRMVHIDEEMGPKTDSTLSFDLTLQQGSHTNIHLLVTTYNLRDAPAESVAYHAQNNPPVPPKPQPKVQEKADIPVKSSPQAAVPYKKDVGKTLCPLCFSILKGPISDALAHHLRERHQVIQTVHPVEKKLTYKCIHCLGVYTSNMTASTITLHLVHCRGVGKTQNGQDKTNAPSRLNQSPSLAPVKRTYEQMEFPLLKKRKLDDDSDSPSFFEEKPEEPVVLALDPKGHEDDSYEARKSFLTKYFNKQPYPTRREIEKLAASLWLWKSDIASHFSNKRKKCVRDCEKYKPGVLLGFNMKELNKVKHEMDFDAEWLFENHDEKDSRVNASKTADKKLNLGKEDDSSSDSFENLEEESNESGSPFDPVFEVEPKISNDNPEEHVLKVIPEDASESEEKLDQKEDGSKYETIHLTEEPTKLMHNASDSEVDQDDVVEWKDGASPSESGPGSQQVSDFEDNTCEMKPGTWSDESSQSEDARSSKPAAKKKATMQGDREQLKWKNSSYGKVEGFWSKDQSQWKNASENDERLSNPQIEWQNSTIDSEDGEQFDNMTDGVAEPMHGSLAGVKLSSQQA

Compound: Cc1cc(ccc1-c1ccccc1)C(=O)N1CCCN(CC1)C(=O)CCl [compound 10]
Assay: probe-labelled cysteine peptide fold change vs DMSO (competition) (log2 fold change); higher = less target engagement (more negative = stronger competition)
Conditions: THP-1, incubation time: 4 h
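Note: competitive profiling in live THP-1 cells: cysteine peptides tagged with an iodoacetamide desthiobiotin (IA-DTB) probe, intensity after compound treatment relative to DMSO-treated cells.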

Target | probe-labelled cysteine peptide fold change (10 µM) | probe-labelled cysteine peptide fold change (50 µM)
ACTR6_Q9GZN1_28_IGYSHENVSVIPNCQFR (UniProt Q9GZN1) | 0.029 | -0.0803
ADH5_P11766_282_AALEACHK (UniProt P11766) | -0.00579 | -0.00597
ADRM1_Q16186_80_TSGNVEDDLIIFPDDCEFKR (UniProt Q16186) | -0.174 | -0.215
ACSF3_Q4G176_139_KHPAAQLEYVICDSQSSVVLASQEYLELLSPVVR (UniProt Q4G176) | 0.198 | 0.319
ACOT9_Q9Y305_299_SLEICHPQER (UniProt Q9Y305) | 0.0839 | 0.181
ACTN1_P12814_370_MVSDINNAWGCLEQVEK (UniProt P12814) | -0.0983 | -0.361
ACSL4_O60488_221_TALLDISCVK (UniProt O60488) | 0.177 | 0.0446
ACTR5_Q9H9F9_48_AGWACPGQDPGPEPR (UniProt Q9H9F9) | 0.0426 | -0.0673
ACTN1_P12814_774_ACLISLGYDIGNDPQGEAEFAR (UniProt P12814) | 0.292 | 0.147
AFTPH_Q6ULP2_583_DSCSWAAFGDQQATESHHR (UniProt Q6ULP2) | -0.0209 | -0.394
AFG1L_Q8WV93_72_ALAVCHGPLDHYDFLIK (UniProt Q8WV93) | 0.0611 | 0.142
ACTN4_O43707_879_ELPPDQAEYCIAR (UniProt O43707) | 0.0241 | -0.0546
ACOX3_O15254_426_EACGGHGYLAMNR (UniProt O15254) | -0.132 | -0.173
ACTL6A_O96019_152_LTELMFEHYNIPAFFLCK (UniProt O96019) | 0.0933 | 0.112
ACTN1_P12814_476_CQKICDQWDNLGALTQKRR (UniProt P12814) | 0.24 | 0.0709
ADPGK_Q9BRR6_470_EGISFHFTPVLVCK (UniProt Q9BRR6) | 0.181 | 0.234
AGK_Q53H12_34_HCDNLLR (UniProt Q53H12) | -0.149 | 0.124
ACTN1_P12814_476+480_CQKICDQWDNLGALTQKRR (UniProt P12814) | 0.0377 | 0.0276
ACSL4_O60488_420_GYDAPLCNLLLFKK (UniProt O60488) | -0.291 | -1.12

Target | probe-labelled cysteine peptide fold change (10 µM) | probe-labelled cysteine peptide fold change (50 µM)
ADGRL2_O95490_807_TMMGYWSTQGCK (UniProt O95490) | -0.117 | -0.103
AGL_P35573_259_FSCDVAEGK (UniProt P35573) | 0.176 | 0.0148
ADAM9_Q13443_575_LQCENVQEIPVFGIVPAIIQTPSR (UniProt Q13443) | 0.455 | 0.239
ACTN1_P12814_180_DGLGFCALIHR (UniProt P12814) | 0.0677 | 0.0339
AGAP3_Q96P47_263_KQQLAIGPCK (UniProt Q96P47) | -0.377 | -0.702
ADH5_P11766_97_AGDTVIPLYIPQCGECK (UniProt P11766) | -0.0779 | -0.147
ACY1_Q03154_116_CVSIQYLEAVR (UniProt Q03154) | 0.144 | 0.329
ACTN4_O43707_879_RELPPDQAEYCIAR (UniProt O43707) | 0.0469 | 0.141
ADAT3_Q96EY9_249_GTYDFRPFPACSFAPAAAPQAVR (UniProt Q96EY9) | 0.122 | 0.397
ACTN4_O43707_499_ICDQWDALGSLTHSRR (UniProt O43707) | 0.0906 | -0.0707
ACSL5_Q9ULC5_322_IVQAVVYSCGAR (UniProt Q9ULC5) | -0.154 | -0.0691
ACSL3_O95573_85_SVNSLDGLASVLYPGCDTLDK (UniProt O95573) | 0.0339 | 0.289
ACTR8_Q9H981_179_WTNTSHHPEYLVGEEALYVNPLDCYNIHWPIR (UniProt Q9H981) | -0.0279 | 0.232
ADAM17_P78536_333_VCLAHLFTYQDFDMGTLGLAYVGSPR (UniProt P78536) | -0.0733 | 0.266
ACP2_P11117_345_APWPLSLPGCPHR (UniProt P11117) | -0.126 | 0.269
ADH5_P11766_100_AGDTVIPLYIPQCGECK (UniProt P11766) | 0.208 | -0.238
ADCY9_O60503_1333_AIEKDDCDETGIEEANELTK (UniProt O60503) | -0.112 | -0.417
ADAT1_Q9BUB4_263_CVPGEAGDSGKPGAAFHQVGLLR (UniProt Q9BUB4) | -0.00274 | -0.15
ADNP_Q9H2P0_624+627_TLCPLCFSILK (UniProt Q9H2P0) | 0.0561 | -0.449

Record cards, from the list above. Values in the order: probe-labelled cysteine peptide fold change (10 µM)	probe-labelled cysteine peptide fold change (50 µM)
ADAM9_Q13443_575_LQCENVQEIPVFGIVPAIIQTPSR (UniProt Q13443) reads 0.455	0.239
ACSL5_Q9ULC5_322_IVQAVVYSCGAR (UniProt Q9ULC5) reads -0.154	-0.0691
ADAT1_Q9BUB4_263_CVPGEAGDSGKPGAAFHQVGLLR (UniProt Q9BUB4) reads -0.00274	-0.15
